These are yes or no findings as the source states them, for the method shown. Binding seen in cells or lysates may run through a third protein. A yes stands for co-enrichment or nearness to the bait. Other partners may have been found.
Target: Leo1 (S. pombe)
Test: affinity purification with mass spectrometry; Leo1 epitope-tagged at the endogenous locus, affinity purification followed by LC-MS/MS

B1: Tpr1 (protein, UniProt O42668 1-1039)
chain: MEGFTLETHASRIIEVPLLGQEDQSVEIDCSSLPSDATELCEILVNEQAPREFWTKFAHEYYIRGLREQAILILKSGLETLKDSESLCILNANIAAIYLSMAREAMLKKDTDLRDEQLRNVRTYLEAANNIDSKSEINVLLHGIYRILLNPTDKESLENAARCFDFVLQKSGGNILGFLGKARILYAKGNYRSALKLYQRALVSNPQFKPDPRIGIGLCFWNLDMKTDALSAWTRVQQLDPKNTVVDTYIGLYYYDLAFQNVNNDSFVQNYGKALQHIQRAFKTRNNDPVASSILERYVYSKKNYEGCIKLAENVIQNSFSSSLIADGYYWMGRAYHQMGNNEKAMASYQKAKAADDRHLLSSVGIGQIQILQNDLTSAKLTFERIAEQNQSCFEALVVLGCLHASDSKPDLTKARMLLDRAFNLVGSSKLPRVVDSDLYITQARLWEKEDTKKSLGFLTRALDFLESAHMSVGPELLNNIAVLQYHLGLIPEAHGNIIKAKSVLPDANPELSLLLDYNLARCEEELGNTSVASEAYVSILEKHPSFIDARIRKCLLQLSNPNEETFKEIRHIMNADSQNLEVRAFFGWYLSKQKRRPVEDPEVRHCSQTLRHWHDDIYSLVQLGNAYMRQAREFRVHNDREKLKRQKLYIKAIQSYDQAIKFDPKNAHAAQGIAIILAQNRQFSKALLILSKVREAIKDATTLINIGNCLAELKQFSRAIEVFETVYSSTGESDTYGVLSCLGRVWLQRGRESKNVDYLKESVRYATLALEKNPENPSLLFNVAFVQFQLCELIRQKPENSRTVEDLNFAMQQLDASIETFTKLVSVEHPPYSPTSIEQRAKMAKNTTKRQLERAIQAQIEYEKSVAAKLEDARIQREKEKARRLAEEEALLKEKQERERQLQEERQKMQEEVLEWRKSQQKASEDDMSLSDDEEKQSGKKKKKDRKKRKSKSKQESSDSGVSEDDEIPLSDARNKTKKRRVNRRVISEEYTFDQDSDAEGNQEEEVSRTIEEKQDNDITDNQDDNKELNLFSEEDEE
  binding: binds
